Reference: paper PMC9307837
No constants are given. Whether binding was seen depends on the method and setting. In cells and extracts the contact can be indirect. A result given as binding can be weak or reduced; the word gives no strength.

Biological target: T1, Calcium/calmodulin-dependent protein kinase IV (CaMK4), human (human (endogenous in HaCaT)) (UniProt Q16566)
T1 sequence: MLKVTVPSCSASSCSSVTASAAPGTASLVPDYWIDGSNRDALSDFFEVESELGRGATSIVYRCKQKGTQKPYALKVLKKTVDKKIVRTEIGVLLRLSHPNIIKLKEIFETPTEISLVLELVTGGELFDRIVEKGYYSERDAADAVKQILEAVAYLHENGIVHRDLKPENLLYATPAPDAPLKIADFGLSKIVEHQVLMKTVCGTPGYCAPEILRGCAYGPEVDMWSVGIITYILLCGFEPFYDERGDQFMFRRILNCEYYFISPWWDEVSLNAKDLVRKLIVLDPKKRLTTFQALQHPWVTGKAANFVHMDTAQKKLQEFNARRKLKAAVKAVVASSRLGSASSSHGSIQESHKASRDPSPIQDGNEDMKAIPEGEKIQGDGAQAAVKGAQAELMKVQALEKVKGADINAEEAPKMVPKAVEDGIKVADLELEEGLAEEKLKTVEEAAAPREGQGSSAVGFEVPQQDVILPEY
Assay: co-IP; HaCaT cell lysates incubated with CaMK4 Ab or rabbit IgG overnight at 4 °C, Protein A/G magnetic beads, western blot with AKT Ab; cells transfected with siCAMK4 or scrambled control and stimulated with TNF and IL-17A (Fig. 8 legend)

Question: For AKT, human (enzyme), which binding is on record?
Answer: binds
